According to the supplement of paper PMC10849652:
The other results are listed elsewhere or left out.

The chains behind the UniProt entries cited, without tags or fusion partners. Where a name states a change or a piece, a line headed by the entry shows the natural chain unless it says otherwise.
UniProt Q6XUX3: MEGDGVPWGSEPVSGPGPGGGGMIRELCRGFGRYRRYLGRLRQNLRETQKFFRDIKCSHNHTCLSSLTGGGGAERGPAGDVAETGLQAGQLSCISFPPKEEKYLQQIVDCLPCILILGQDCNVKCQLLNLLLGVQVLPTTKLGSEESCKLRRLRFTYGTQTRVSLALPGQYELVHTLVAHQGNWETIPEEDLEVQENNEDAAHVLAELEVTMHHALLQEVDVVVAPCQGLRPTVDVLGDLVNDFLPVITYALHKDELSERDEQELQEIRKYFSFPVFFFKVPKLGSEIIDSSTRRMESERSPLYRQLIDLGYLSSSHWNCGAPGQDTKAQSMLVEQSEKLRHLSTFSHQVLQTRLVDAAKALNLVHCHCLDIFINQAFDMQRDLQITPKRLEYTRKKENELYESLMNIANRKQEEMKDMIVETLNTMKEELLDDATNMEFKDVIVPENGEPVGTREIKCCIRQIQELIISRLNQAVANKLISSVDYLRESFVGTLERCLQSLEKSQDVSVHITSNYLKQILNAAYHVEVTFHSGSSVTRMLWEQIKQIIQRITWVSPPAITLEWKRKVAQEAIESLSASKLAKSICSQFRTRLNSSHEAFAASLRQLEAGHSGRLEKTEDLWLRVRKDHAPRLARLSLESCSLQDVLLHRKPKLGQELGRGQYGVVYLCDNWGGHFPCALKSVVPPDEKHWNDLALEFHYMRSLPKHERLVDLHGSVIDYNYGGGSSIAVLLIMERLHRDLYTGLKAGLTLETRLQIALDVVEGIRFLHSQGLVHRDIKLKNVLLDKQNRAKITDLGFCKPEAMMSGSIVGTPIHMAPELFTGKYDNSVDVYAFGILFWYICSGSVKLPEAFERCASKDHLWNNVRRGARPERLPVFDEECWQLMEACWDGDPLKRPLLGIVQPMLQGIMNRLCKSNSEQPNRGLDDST
UniProt Q8IXB1: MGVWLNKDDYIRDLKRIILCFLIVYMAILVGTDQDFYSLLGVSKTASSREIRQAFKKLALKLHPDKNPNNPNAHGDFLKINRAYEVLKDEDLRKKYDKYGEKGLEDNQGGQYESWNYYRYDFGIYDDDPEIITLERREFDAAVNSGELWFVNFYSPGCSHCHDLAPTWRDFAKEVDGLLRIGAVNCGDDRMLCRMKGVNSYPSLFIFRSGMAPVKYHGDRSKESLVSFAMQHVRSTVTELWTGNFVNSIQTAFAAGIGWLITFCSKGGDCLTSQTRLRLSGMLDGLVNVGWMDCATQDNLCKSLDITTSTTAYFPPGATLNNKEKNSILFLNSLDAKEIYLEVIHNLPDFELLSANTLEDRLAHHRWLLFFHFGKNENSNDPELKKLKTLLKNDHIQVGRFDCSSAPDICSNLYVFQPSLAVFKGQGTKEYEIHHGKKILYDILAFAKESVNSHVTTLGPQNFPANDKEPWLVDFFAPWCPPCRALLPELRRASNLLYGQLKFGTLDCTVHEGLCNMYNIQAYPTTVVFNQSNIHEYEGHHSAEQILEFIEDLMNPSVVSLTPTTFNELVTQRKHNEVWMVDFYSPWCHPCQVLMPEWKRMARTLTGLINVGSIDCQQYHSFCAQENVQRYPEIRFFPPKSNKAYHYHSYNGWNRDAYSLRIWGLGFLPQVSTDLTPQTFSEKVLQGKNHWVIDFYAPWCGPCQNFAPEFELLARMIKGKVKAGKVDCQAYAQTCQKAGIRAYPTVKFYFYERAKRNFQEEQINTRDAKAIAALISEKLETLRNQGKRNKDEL
UniProt Q9P2X0: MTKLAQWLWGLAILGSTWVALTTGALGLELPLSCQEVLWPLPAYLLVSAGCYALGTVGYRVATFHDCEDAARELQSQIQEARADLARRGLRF
UniProt P26358: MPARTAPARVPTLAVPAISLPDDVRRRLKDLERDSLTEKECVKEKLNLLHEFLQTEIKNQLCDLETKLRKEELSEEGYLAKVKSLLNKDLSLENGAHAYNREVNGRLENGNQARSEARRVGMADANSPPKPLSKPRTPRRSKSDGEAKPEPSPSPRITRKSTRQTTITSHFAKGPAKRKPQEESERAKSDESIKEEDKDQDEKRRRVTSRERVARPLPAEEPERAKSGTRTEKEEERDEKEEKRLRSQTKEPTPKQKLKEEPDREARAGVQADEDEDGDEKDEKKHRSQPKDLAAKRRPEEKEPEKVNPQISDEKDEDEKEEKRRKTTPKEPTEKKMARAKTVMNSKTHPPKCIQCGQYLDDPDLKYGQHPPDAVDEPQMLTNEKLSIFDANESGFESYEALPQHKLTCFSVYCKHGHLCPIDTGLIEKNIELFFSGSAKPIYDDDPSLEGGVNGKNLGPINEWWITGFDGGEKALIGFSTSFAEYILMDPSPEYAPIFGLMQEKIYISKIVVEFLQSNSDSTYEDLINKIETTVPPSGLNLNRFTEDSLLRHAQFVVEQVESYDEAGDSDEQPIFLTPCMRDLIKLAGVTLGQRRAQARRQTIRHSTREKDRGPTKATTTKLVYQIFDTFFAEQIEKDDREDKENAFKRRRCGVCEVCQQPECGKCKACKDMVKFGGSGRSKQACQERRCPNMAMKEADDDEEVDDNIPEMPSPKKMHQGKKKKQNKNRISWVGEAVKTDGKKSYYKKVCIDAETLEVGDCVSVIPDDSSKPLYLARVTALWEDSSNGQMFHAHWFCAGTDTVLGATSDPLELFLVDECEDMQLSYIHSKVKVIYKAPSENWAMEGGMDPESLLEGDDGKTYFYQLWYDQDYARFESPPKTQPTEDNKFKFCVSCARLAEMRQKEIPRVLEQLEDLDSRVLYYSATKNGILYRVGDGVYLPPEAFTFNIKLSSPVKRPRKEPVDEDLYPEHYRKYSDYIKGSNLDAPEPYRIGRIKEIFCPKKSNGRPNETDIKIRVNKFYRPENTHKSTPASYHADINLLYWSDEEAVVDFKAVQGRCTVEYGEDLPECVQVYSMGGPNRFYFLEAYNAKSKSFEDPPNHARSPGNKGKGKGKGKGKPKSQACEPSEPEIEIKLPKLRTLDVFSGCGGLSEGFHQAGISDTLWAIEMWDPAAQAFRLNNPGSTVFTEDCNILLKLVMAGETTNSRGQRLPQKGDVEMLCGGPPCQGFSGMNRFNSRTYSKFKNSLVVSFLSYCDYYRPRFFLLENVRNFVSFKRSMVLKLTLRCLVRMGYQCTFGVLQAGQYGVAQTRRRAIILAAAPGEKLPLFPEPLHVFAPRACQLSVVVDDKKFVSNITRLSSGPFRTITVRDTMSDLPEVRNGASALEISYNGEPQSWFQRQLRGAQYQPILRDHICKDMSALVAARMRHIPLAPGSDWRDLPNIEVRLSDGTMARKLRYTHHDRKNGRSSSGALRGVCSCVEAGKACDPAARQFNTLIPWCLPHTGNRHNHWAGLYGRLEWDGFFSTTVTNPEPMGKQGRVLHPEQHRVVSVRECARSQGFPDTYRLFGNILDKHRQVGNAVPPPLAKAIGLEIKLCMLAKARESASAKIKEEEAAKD
UniProt Q9C005, whole entry, looked up: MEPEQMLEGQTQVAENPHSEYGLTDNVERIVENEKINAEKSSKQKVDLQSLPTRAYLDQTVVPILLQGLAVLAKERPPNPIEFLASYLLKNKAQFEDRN
UniProt O00716: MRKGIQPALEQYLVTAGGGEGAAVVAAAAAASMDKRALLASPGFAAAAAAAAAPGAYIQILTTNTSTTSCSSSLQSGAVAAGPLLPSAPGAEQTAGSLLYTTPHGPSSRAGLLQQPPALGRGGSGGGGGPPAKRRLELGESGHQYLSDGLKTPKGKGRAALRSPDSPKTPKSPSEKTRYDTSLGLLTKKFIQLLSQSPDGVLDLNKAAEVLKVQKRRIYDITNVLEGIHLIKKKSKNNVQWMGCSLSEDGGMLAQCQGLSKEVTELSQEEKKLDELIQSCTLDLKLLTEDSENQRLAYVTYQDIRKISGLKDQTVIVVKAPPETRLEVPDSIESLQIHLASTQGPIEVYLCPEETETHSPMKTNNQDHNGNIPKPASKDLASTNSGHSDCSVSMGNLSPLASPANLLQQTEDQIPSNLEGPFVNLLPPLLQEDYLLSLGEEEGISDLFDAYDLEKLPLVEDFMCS
UniProt Q96DA6: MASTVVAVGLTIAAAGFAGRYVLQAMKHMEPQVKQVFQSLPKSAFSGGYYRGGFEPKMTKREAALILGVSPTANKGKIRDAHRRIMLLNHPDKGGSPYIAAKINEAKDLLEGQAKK
UniProt O43237, whole entry, looked up: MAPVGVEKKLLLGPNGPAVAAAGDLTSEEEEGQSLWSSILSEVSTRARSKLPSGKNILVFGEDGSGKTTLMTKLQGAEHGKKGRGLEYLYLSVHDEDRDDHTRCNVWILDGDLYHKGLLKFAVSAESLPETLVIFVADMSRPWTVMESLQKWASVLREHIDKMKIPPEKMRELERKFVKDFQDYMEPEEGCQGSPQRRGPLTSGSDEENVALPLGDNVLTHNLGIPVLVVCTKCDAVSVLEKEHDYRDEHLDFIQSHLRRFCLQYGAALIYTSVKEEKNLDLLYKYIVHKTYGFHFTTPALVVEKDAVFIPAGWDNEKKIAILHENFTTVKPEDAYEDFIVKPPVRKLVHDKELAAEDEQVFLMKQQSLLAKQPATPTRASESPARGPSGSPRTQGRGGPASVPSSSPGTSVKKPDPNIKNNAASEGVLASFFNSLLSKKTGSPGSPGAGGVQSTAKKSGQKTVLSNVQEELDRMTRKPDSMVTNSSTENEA
UniProt O43598: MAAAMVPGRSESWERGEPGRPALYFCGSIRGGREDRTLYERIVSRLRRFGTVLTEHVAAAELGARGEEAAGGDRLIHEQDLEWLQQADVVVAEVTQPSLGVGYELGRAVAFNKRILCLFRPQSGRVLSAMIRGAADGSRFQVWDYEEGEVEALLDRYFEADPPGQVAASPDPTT
UniProt P42126: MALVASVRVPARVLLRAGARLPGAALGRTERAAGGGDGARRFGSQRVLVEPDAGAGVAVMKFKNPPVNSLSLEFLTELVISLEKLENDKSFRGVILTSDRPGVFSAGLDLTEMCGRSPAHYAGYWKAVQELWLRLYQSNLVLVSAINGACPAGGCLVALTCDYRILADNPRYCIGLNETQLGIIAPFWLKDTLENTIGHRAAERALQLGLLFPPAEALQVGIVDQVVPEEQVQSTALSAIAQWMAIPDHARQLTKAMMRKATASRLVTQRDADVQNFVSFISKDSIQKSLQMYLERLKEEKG
UniProt Q96FJ2, whole entry, looked up: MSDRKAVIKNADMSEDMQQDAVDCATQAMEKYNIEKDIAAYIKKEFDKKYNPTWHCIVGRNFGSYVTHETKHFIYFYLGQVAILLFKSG
UniProt Q9NXW2: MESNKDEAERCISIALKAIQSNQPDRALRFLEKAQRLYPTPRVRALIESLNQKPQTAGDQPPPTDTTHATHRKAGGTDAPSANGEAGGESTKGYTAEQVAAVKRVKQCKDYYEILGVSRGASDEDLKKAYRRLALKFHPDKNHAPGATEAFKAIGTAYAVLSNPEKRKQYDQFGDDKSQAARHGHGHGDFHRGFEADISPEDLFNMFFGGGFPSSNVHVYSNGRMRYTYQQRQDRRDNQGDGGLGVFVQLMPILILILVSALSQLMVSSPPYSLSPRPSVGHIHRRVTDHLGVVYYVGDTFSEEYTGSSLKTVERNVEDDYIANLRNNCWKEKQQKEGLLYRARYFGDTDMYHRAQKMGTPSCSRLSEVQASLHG
UniProt P63167, whole entry, looked up: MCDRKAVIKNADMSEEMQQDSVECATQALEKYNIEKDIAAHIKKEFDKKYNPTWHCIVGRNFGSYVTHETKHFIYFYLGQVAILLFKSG
UniProt Q8TEA8: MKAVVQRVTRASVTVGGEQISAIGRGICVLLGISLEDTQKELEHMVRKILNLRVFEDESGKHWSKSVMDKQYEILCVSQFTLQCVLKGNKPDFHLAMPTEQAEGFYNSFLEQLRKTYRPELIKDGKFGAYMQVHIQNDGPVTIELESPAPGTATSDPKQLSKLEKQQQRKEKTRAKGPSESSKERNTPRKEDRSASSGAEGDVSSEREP
UniProt Q8WWZ3: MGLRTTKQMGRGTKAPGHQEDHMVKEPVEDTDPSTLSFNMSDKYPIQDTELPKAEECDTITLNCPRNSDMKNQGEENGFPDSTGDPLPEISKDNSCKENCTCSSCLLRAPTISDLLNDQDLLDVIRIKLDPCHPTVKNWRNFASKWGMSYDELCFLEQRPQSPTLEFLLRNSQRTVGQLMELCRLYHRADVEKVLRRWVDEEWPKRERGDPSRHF
UniProt Q6UX65: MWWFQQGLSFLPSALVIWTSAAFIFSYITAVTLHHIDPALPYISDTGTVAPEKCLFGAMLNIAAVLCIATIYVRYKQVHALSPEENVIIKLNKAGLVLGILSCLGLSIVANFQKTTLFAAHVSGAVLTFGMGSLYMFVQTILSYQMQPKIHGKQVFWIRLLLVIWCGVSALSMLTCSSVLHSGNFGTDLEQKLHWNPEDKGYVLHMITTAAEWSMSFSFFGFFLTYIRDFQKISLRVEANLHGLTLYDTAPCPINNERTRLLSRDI
UniProt Q9H3Z4: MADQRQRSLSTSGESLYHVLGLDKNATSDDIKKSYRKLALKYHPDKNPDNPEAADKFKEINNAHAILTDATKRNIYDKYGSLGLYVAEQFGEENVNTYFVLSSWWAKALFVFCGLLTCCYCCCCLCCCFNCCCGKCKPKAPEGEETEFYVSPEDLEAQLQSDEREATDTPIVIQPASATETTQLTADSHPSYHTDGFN

Assays:
Experiment in all cases: log2 fold change, soluble protein after heating vs DMSO (PISA); higher = thermal stabilisation; K562 cells, 10 uM, 30 min; active = over 0.2 and 3.5 SD of the protein, either way, in both replicates (recomputed)
[1] = compound: C1=CC=C(C=C1)[C@H](COC2=CC3=C(C=C2)NC(=O)N3)NC(=O)C4=CC=CN(C4=O)CC5=CC(=C(C=C5)F)F
Summary of the method: (§1)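 For each measurement, 10 μM compound was applied for 30 min to K562 cells at 2×10^6 cells/mL. Aliquots were heated for 3 min across 48°C-58°C, pooled, and extracted in PBS with 0.5% NP-40 at 4°C; the supernatant after 21,000xg for 90 min was soluble protein. This was quantified by TMTpro 16plex LC-MS/MS with channel sums equalised, and thermal stability was reported relative to control samples from duplicates, on a log2 fold-change scale.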

[2] = compound: CC1=C(SC2=C1C(=N[C@H](C3=NN=C(N32)C)CC(=O)N)C4=CC=C(C=C4)Cl)C
Summary of the method: as §1

[3] = compound: CC1=C2C(=CC=C1)N=C(N(C2=O)C3=CC=CC=C3C)CN4C=NC5=C(N=CN=C54)N
Summary of the method: as §1

[4] = compound: Cc1sc2c(c1C)C(c1ccc(Cl)cc1)=N[C@@H](CC(=O)OC(C)(C)C)c1nnc(C)n1-2
Summary of the method: as §1

[5] = compound: c1ccc([C@@H]2C[C@H]2NC2CCNCC2)cc1
Summary of the method: as §1

Measured: log2 fold change

EBNA1BP2 (UniProt Q99848)
inactive: [1] 0.118 | [2] -0.378 | [3] -0.269 | [4] 0.306 | [5] -0.045

DST (UniProt Q03001)
inactive: [1] 0.089 | [2] 0.156 | [3] 0.135 | [4] -0.04 | [5] -0.047

DSTYK (UniProt Q6XUX3)
inactive: [1] -0.042 | [2] 0.036 | [3] 0.022 | [4] 0.017 | [5] -0.088

DPYSL2 (UniProt Q16555)
inactive: [1] -0.012 | [2] 0.072 | [3] 0.093 | [4] 0.01 | [5] 0.014

2 successive records out of the list so far, quoted:
EBNA1BP2 (UniProt Q99848)
inactive: [1] 0.118 | [2] -0.378 | [3] -0.269 | [4] 0.306 | [5] -0.045

DST (UniProt Q03001)
inactive: [1] 0.089 | [2] 0.156 | [3] 0.135 | [4] -0.04 | [5] -0.047

(list continues)

DNAJC11 (UniProt Q9NVH1)
inactive: [1] -0.02 | [2] 0.027 | [3] 0.055 | [4] -0.055 | [5] -0.016

DOP1B (UniProt Q9Y3R5)
inactive: [1] -0.048 | [2] 0.112 | [3] 0.139 | [4] 0 | [5] 0.086

DNAJC3 (UniProt Q13217)
inactive: [1] 0.039 | [2] -0.037 | [3] -0.064 | [4] 0.006 | [5] 0

DNAJC10 (UniProt Q8IXB1)
inactive: [1] 0.084 | [2] -0.057 | [3] -0.066 | [4] 0.015 | [5] -0.048

DPM3 isoform 2 (UniProt Q9P2X0)
inactive: [1] 0.046 | [2] 0.027 | [3] 0.091 | [4] -0.137 | [5] -0.041

DNM2 (UniProt P50570)
inactive: [1] -0.023 | [2] 0.044 | [3] 0.078 | [4] -0.027 | [5] -0.036

DNAJB1 (UniProt M0R128)
inactive: [2] 0.006 | [3] 0.106 | [4] 0.078 | [5] 0.061
active: [1] -0.843

DPM1 (UniProt O60762)
inactive: [1] 0.011 | [2] 0.052 | [3] -0.018 | [4] -0.016 | [5] 0.032

DNMT1 isoform 2 (UniProt P26358)
inactive: [1] -0.007 | [2] 0.041 | [3] 0.032 | [4] -0.009 | [5] -0.025

DPY30 (UniProt Q9C005)
inactive: [1] 0.14 | [2] -0.195 | [3] -0.071 | [4] -0.172 | [5] -0.165

DR1 (UniProt Q01658)
inactive: [1] -0.063 | [2] 0.02 | [3] 0.094 | [4] -0.021 | [5] 0.052

DPY19L1, A0A1B0GW05
inactive: [1] -0.014 | [2] -0.043 | [3] -0.156 | [4] -0.092 | [5] 0.074

E2F3 (UniProt O00716)
inactive: [1] -0.041 | [2] 0.031 | [3] 0.192 | [4] -0.005 | [5] 0.08

DNAJB14 (UniProt Q8TBM8)
inactive: [1] 0.02 | [2] 0.104 | [3] -0.001 | [4] -0.067 | [5] -0.077

DPH5 isoform 5 (UniProt Q9H2P9)
inactive: [1] -0.025 | [2] 0.054 | [3] 0.092 | [4] -0.009 | [5] 0

DNAJC19 (UniProt Q96DA6)
inactive: [1] 0.025 | [2] 0.021 | [3] 0.05 | [4] 0 | [5] -0.041

DYNC1LI2 (UniProt O43237)
inactive: [1] -0.04 | [2] -0.071 | [3] 0.035 | [4] -0.028 | [5] 0.013

DTYMK (UniProt P23919)
inactive: [1] -0.064 | [2] 0.082 | [3] -0.02 | [4] -0.003 | [5] -0.014

DRG2 (UniProt P55039)
inactive: [1] 0.002 | [2] 0.073 | [3] 0.102 | [4] -0.024 | [5] -0.023

DNPH1 (UniProt O43598)
inactive: [1] 0.013 | [2] 0.024 | [3] -0.001 | [4] -0.039 | [5] -0.027

ECI1 (UniProt P42126)
inactive: [1] 0.023 | [2] 0.09 | [3] 0.089 | [4] -0.083 | [5] -0.011

DOCK7 (UniProt Q96N67)
inactive: [1] -0.04 | [2] 0.11 | [3] -0.01 | [4] -0.048 | [5] 0

DYNLL2 (UniProt Q96FJ2)
inactive: [1] 0.086 | [2] 0.182 | [3] 0.142 | [4] -0.171 | [5] -0.069

DOCK9 isoform 4 (UniProt Q9BZ29)
inactive: [1] -0.05 | [2] 0.02 | [3] 0.153 | [4] 0 | [5] 0.08

DSC2 (UniProt Q02487)
inactive: [1] 0.078 | [2] -0.032 | [3] 0.068 | [4] 0.025 | [5] -0.04

DOLPP1 (UniProt Q86YN1)
inactive: [1] -0.028 | [2] 0.02 | [3] -0.107 | [4] 0.062 | [5] 0.153

DPY19L3 (UniProt Q6ZPD9)
inactive: [1] 0.028 | [2] 0.133 | [3] -0.073 | [4] -0.172 | [5] 0.099

DNAJB12 (UniProt Q9NXW2)
inactive: [1] -0.044 | [2] 0.027 | [3] 0.081 | [4] -0.011 | [5] 0.011

DYRK1A isoform 2 (UniProt Q13627)
inactive: [1] -0.062 | [2] 0.059 | [3] 0.085 | [4] 0.026 | [5] 0.011

DNAJB4 (UniProt Q9UDY4)
inactive: [1] 0.004 | [2] 0.032 | [3] 0.075 | [4] 0.025 | [5] 0.007

DYNLL1 (UniProt P63167)
inactive: [1] 0.004 | [2] 0.175 | [3] 0.043 | [4] -0.112 | [5] -0.027

DTD1 (UniProt Q8TEA8)
inactive: [1] 0.036 | [2] -0.032 | [3] 0.046 | [4] -0.033 | [5] 0.018

DOCK8 (UniProt Q8NF50)
inactive: [1] 0.096 | [2] -0.223 | [3] -0.01 | [4] 0.152 | [5] -0.087

EDARADD (UniProt Q8WWZ3)
inactive: [1] 0.004 | [2] 0.05 | [3] 0.084 | [4] -0.017 | [5] -0.026

DNPEP (UniProt C9JBE1)
inactive: [1] 0.091 | [3] 0.097 | [4] 0.087

DNM2 isoform 4 (UniProt P50570)
inactive: [1] 0.015 | [2] 0.065 | [5] -0.022

DRAM2 (UniProt Q6UX65)
inactive: [2] 0.023 | [3] 0.057 | [4] -0.077 | [5] 0.195

DNAJC5 (UniProt Q9H3Z4)
inactive: [1] 0.029 | [3] 0.078 | [4] 0.042
